Measurements from PubChem BioAssay AID504467 (National Center for Advancing Translational Sciences (NCATS), 2011).
Hit rate of the full screen: of about 330,000 compounds, about 7,700 (2.3%) were called active. Inconclusive results, whose numbers are uncertain, are shown with a selection of clear calls. Calls come from the whole dose curve; as a rule, active = well fitted inhibition curve with a large enough effect; inconclusive = small, poorly fitted or top-dose-only effect, or effect the other way; inactive = flat fitted curve, though single readings scatter. Where the call is inconclusive, the potency comes from a doubtful curve fit.

experiment: qHTS screen for small molecules that inhibit ELG1-dependent DNA repair in human embryonic kidney (HEK293T) cells expressing luciferase-tagged ELG1; details: HEK293T ELG1-luciferase reporter, luminescence, 16 h, DNA damage induced by 5-fluorouridine; series mostly up to 46.1 µM; note: nearly all actives have a fitted effect of over 55% in size
How it was run: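 5-Fluorouridine DNA damage + compound/DMSO, 2,000 cells/well, 16 h, 37 °C/5% CO2. ONE-Glo, 30 min RT, luminescence. Readout = decrease in reporter signal.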
Potency is the fitted concentration of half-maximal effect.

SMILES | Potency
Cn1cc(Cl)c(C(=O)OCC(=O)Nc2cccc(Cl)c2)n1 | inactive
O=C(Nc1ccc2c(c1)CCC2)Nc1ccc2c(c1)OCO2 | inconclusive: 10.3 µM [activator, partial curve]
Cc1c(-c2ccco2)[n+](=O)c2c(n1[O-])CCCCC2 | inactive
COc1ccc(/C=C/C(=O)C23CC4CC(CC(C4)C2)C3)cc1CN1CCOCC1 | inconclusive: 20.6 µM [inhibitor, partial curve]
CC(=O)c1ccc(C(=O)N2CCC(CO)(Cc3cccc(C(F)(F)F)c3)CC2)cc1 | inconclusive: 20.6 µM [inhibitor, single point]
COc1ccc(C(=O)/C=C/Nc2ccc(S(=O)(=O)Nc3nc(C)cc(C)n3)cc2)cc1OC | inconclusive: 23.1 µM [activator, single point]
COc1ccc(NC(=O)Cn2c(=O)n(-c3ccccc3)c(=O)c3oc4ccccc4c32)c(OC)c1 | inconclusive: 13 µM [inhibitor, partial curve]
COc1ccc(COC(=O)c2ccc(Cl)c(S(=O)(=O)N3CCOCC3)c2)cc1F | inconclusive: 16.4 µM [inhibitor, single point]
CC(=O)c1ccc(-c2ccc(C(=O)N3CCC(C(N)=O)CC3)o2)cc1 | inconclusive: 9.2 µM [activator, partial curve, poor fit]
COc1cccc(NC(=O)CCS(=O)(=O)c2cccs2)c1 | inconclusive: 20.6 µM [activator, partial curve]
CC(C)NC(=O)CSc1nnc(-c2ccc(C(C)(C)C)cc2)n1C | inactive
Cc1cccc(C)c1NC(=O)CCCSc1nnc(-c2ccco2)n1-c1ccccc1 | inconclusive: 18.4 µM [inhibitor, single point]
Cc1cc(C)n(-c2nc(NCc3cccnc3)c3c4c(sc3n2)COC(C)(C)C4)n1 | inconclusive: 18.4 µM [inhibitor, single point]
O=C(CC(=O)NCc1ccc(Cl)cc1)NCc1ccc(Cl)cc1 | inactive
COc1ccc(C2=NOC(Cn3nc(C(=O)NCC4CC4)cc3-c3ccccc3)C2)cc1 (stereo not given) | inconclusive: 22.4 µM [inhibitor, single point]
CN(CC1CCOCC1)C(=O)CC1C(=O)NCCN1C/C=C/c1ccccc1 (stereo not given) | inactive
Cc1ccc(NC(=O)CNCc2ccccc2)cc1Br | inconclusive: 23.1 µM [activator, single point]
CCC(=O)N1CCCc2cc(S(=O)(=O)N3CCCc4ccccc43)ccc21 | inactive
Nc1c(C(=O)Nc2ccc3c(c2)OCCO3)nnn1Cc1cccc(Cl)c1 | inconclusive: 3.66 µM [activator, partial curve]
O=C1NC(=O)C(c2cccs2)(c2cccs2)N1 | inactive
CCOc1cc(N2CCOCC2)c(OCC)cc1NC(=O)Cc1cn2ccsc2n1 | inconclusive: 23.1 µM [inhibitor, partial curve]
CCN1C(=O)/C(=C\N2CCCCCC2)SC1=S | inconclusive: 16.4 µM [activator, partial curve]

Quoted from the listing.
For Potency, Nc1c(C(=O)Nc2ccc3c(c2)OCCO3)nnn1Cc1cccc(Cl)c1 is entered as inconclusive: 3.66 µM [activator, partial curve]
For Potency, CCN1C(=O)/C(=C\N2CCCCCC2)SC1=S is entered as inconclusive: 16.4 µM [activator, partial curve]
For Potency, CC(=O)c1ccc(-c2ccc(C(=O)N3CCC(C(N)=O)CC3)o2)cc1 is entered as inconclusive: 9.2 µM [activator, partial curve, poor fit]
For Potency, COc1ccc(C(=O)/C=C/Nc2ccc(S(=O)(=O)Nc3nc(C)cc(C)n3)cc2)cc1OC is entered as inconclusive: 23.1 µM [activator, single point]
For Potency, Cc1c(-c2ccco2)[n+](=O)c2c(n1[O-])CCCCC2 is entered as inactive

More results.

SMILES | Potency
COc1ccc(NC(=O)CN(C)C2=NS(=O)(=O)c3ccccc32)cc1Cl | inactive
O=C(CCSc1ccccc1)Nc1nc2c(s1)COc1ccccc1-2 | inconclusive: 20.6 µM [inhibitor, single point]
COc1ccccc1CCNC(=O)C(=O)NCC1OCCCN1S(=O)(=O)c1ccc(F)cc1C (stereo not given) | inconclusive: 20.6 µM [inhibitor, single point]
Cc1ccc2nc(-c3ccsc3)c(NC3CCCC3)n2c1 | inactive
Cn1c(SCc2ccc(Cl)cc2Cl)nc(C(F)(F)F)cc1=O | inconclusive: 32.6 µM [activator, partial curve, poor fit]
Cc1cc(C)c(C)c(S(=O)(=O)N2CCN(c3ncnc4ccccc34)CC2)c1C | inconclusive: 20.6 µM [inhibitor, partial curve, poor fit]
COc1ccc(C2/C=C\CN(C(=O)Nc3ccccc3-c3ccccc3)CC(=O)N2Cc2ccc(F)cc2)cc1 (stereo not given) | inconclusive: 11.6 µM [inhibitor, partial curve, poor fit]
COc1cc(CNCCCCO)ccc1OCc1ccccc1F | inconclusive: 20.6 µM [activator, single point]
Cc1ccc(S(=O)(=O)c2c(CO)c(-c3ccccc3)nn2C)cc1 | inconclusive: 16.4 µM [inhibitor, single point]
O=C(CSc1nc2ccccc2s1)Nc1cc(S(=O)(=O)N2CCOCC2)ccc1O | inconclusive: 16.4 µM [activator, single point]
CC(NC(=O)Nc1ccc2c(c1)OCO2)C1CCCO1 (stereo not given) | inconclusive: 20.6 µM [activator, partial curve]
OC(COc1ccccc1)CSc1ncn[nH]1 (stereo not given) | inactive
CCN(C(=O)CSc1nnc(Nc2ccc(OC)cc2)s1)C1CCS(=O)(=O)C1 (stereo not given) | inconclusive: 14.6 µM [activator, partial curve]
COc1ccc(Cc2nnc(NC(=O)Nc3cccc(OC)c3)s2)cc1 | inactive
COc1cc(C)ccc1OCc1cc(C(=O)N2CCCCCC2)no1 | inconclusive: 4.11 µM [activator, single point]
CN(C)C(=O)c1ccc(NC(=O)COC(=O)Cn2cc(C(F)(F)F)ccc2=O)cc1 | inconclusive: 1.3 µM [inhibitor, single point]
COc1cc(/C=C2\SC(=S)N(CCC(=O)N3CCCCC3)C2=O)cc(OC)c1OC | inactive
O=C(Nc1nnc(SCc2ccccc2)s1)c1ccco1 | inconclusive: 23.1 µM [activator, partial curve]
Clc1ccc2nnnc(-c3ccccc3)c2c1 | inconclusive: 20.6 µM [inhibitor, single point]
COCCOC(=O)c1c(C)n(C)c2ccc(OC(=O)c3c(OC)cccc3OC)cc12 | inconclusive: 6.51 µM [inhibitor, partial curve]
CCCc1nc(SCC(=O)c2ccc(F)cc2)c2ccccc2n1 | inconclusive: 20.6 µM [inhibitor, single point]
O=C(Nc1ccncc1)Nc1cccc(Cl)c1Cl | inactive

SMILES | Potency
COc1ccccc1C(=O)NC(=S)NNC(=O)c1sc2ccccc2c1Cl | inactive
CCn1c2ccccc2c2cc(NC(=O)c3ccco3)ccc21 | inactive
CCC(Sc1nnc2c3ccccc3n(CC)c2n1)C(=O)Nc1sc2c(c1C#N)CCCC2 (stereo not given) | inconclusive: 0.231 µM [inhibitor, single point]
Cn1c(-c2ncc(F)cc2F)cc2onc(-c3c(F)cccc3Cl)c2c1=O | inconclusive: 4.11 µM [activator, partial curve]
CC(C)(C)c1nnc(NC(=O)c2cccnc2Cl)s1 | inconclusive: 16.4 µM [activator, single point]
N#Cc1nc(Nc2cccc(Cl)c2)c2ncn(C3CCCC3)c2n1 | inconclusive: 0.651 µM [activator, full curve]
C#CCOCCOCCOCCNc1nc(N2CCN(C(=O)CCCCCCCCCCNC(=O)[C@H]([C@@H](C)CC)n3cc(CCCCN=C(N)N)nn3)CC2)nc(N2CCN(C(=O)CCCCCCCCCCNC(=O)[C@H](CCCCN)n3cc(C)nn3)CC2)n1 | inconclusive: 22.4 µM [inhibitor, single point]
CC(C)N(Cc1nc(-c2ccc(Cl)cc2)no1)C(=O)C(c1ccccc1)c1ccccc1 | inactive
CCOC(=O)/C(C#N)=N/Nc1ccc(S(=O)(=O)N2CCc3ccccc32)cc1 | inconclusive: 20.6 µM [inhibitor, partial curve]
CC(Sc1nnc(-c2cccnc2)n1-c1ccccc1)C(=O)NCc1ccc2c(c1)OCO2 (stereo not given) | inconclusive: 1.84 µM [activator, partial curve]
COC(=O)c1cccc(NC(=O)/C(=C\c2ccccc2)NC(=O)c2ccccc2Cl)c1 | inconclusive: 23.1 µM [inhibitor, single point]
O=C(Nc1cccc(-c2csc(Nc3ccc(Cl)cc3)n2)c1)c1cc([N+](=O)[O-])cc(C(F)(F)F)c1 | inconclusive: 29.1 µM [inhibitor, single point]
CC(NCC(=O)Nc1cc(S(=O)(=O)N2CCCCCC2)ccc1Cl)c1ccccc1 (stereo not given) | inconclusive: 18.3 µM [inhibitor, single point]
CC(C)(C)C(=O)Nc1ccc(-c2cn3cccnc3n2)cc1 | inconclusive: 14.6 µM [activator, partial curve]
CC(=O)Nc1ccc(C(=O)OCC(=O)N(C)C2CCCCC2)cc1 | inconclusive: 18.3 µM [activator, single point]
Nc1c(C(=O)c2ccc(F)cc2)oc2ccccc12 | inconclusive: 11.6 µM [activator, partial curve]
CCn1nc(C)cc1C(=O)N1CCCC(C(=O)c2ccc3ccccc3c2)C1 (stereo not given) | inconclusive: 25.9 µM [inhibitor, single point]
Cc1cc(C(=O)OCC(=O)Nc2ccccc2C)c(C)o1 | inconclusive: 0.82 µM [activator, full curve, poor fit]
COc1ccc(-c2cccc(C3CC=CC4C3C(=O)N(Cc3ccccc3)C4c3ccc(C(F)(F)F)cc3)c2)cc1 (stereo not given) | inconclusive: 8.2 µM [inhibitor, partial curve]
c1ccc(Nc2nc3ccccc3[nH]2)nc1 | inconclusive: 10.3 µM [activator, partial curve]
O=C(Nc1ccc(Oc2ncnc3cc(Cl)ccc23)nc1)c1cccs1 | inconclusive: 11.6 µM [activator, partial curve]
